For assay [1], the target named is T1, TAP-tagged Lid1 (Apc4), subunit of the APC/C (S. pombe) (UniProt O42839).
T1 sequence: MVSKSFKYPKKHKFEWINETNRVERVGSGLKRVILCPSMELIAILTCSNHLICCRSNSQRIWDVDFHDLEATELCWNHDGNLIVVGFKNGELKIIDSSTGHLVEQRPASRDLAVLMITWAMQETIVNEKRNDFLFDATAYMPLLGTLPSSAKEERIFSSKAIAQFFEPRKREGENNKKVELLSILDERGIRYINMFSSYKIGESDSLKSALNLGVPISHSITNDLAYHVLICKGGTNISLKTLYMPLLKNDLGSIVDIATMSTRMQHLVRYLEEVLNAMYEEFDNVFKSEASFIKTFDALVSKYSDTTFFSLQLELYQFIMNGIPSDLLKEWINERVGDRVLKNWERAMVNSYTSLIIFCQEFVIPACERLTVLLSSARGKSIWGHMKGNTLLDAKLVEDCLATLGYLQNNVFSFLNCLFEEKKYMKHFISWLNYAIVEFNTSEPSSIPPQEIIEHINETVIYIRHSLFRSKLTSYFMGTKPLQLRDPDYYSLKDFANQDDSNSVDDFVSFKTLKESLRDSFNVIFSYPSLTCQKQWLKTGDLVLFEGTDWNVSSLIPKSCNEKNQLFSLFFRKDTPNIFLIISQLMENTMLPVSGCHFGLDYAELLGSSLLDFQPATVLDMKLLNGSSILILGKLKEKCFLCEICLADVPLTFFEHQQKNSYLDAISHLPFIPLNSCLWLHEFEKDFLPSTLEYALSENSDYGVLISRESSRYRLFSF
Nature of the assay: co-IP; Apc4-TAP pulled down with IgG Dynabeads from extracts of cdc25-22 cells released from G2 into mitosis at 25°C, carbendazim added after 20 min, time points every 15 min; blots for Mad3p (anti-GFP) and Mad2p; lysis buffer 50 mM HEPES pH 7.5, 75 mM KCl, 0.1% TritonX-100; strains wild type, mad3-KEN1, mad3-KEN2, mad3-C9A, mad2-S92A, mad3-C9A mad2-S92A.

Assay [2] concerns the target T2, Cdc20^Slp1 with an internally-engineered 3xFLAG tag (S. pombe) (UniProt P78972).
T2 sequence: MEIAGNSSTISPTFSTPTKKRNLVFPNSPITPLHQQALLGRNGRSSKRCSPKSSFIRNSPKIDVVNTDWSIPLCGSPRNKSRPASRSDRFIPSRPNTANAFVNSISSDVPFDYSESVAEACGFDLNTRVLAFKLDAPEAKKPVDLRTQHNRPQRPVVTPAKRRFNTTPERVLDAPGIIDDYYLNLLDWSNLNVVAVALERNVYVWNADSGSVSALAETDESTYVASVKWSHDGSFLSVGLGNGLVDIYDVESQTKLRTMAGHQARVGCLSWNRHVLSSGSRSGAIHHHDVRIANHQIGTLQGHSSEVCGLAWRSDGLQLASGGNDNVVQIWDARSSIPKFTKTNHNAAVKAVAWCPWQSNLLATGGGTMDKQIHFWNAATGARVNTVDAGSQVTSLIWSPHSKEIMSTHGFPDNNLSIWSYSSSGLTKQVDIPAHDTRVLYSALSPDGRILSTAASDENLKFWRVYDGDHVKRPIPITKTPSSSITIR
Nature of the assay: co-IP; Cdc20^Slp1-3xFLAG immunoprecipitated with anti-FLAG (M2) antibodies on Dynabeads from native extracts of cdc25-22 cells released from G2 into mitosis at 25°C, time points every 15 min; blots for Mad3p (anti-GFP) and Mad2p; strains wild type, mad3-C9A, mad2-S92A, mad3-C9A mad2-S92A, mps1-kd.

For assay [3], the target named is T1, TAP-tagged Lid1 (Apc4), subunit of the APC/C (S. pombe). Nature of the assay: co-IP; as a2, in the mad3-KEN1 strain: Apc4-TAP pulled down with IgG Dynabeads, blot for Mad2p.

Numbering of substitutions follows the chain as printed. Names and notes keep the numbering of the source. No constants are given. Whether binding was seen depends on the method and setting. Binding seen in cells or lysates may run through a third protein. Some binding calls cover weakened binding; strength is not graded here. Sequences can lack the tags named with a protein.

B1: Mad3p tagged with GFP (wild type) (protein, UniProt O59767 1-310)
chain: MEPLDAGKNWVHMDVIEQSKENIEPRKAGHSASALAKSSSRNHTEKEVAGLQKERMGHERKIETSESLDDPLQVWIDYIKWTLDNFPQGETKTSGLVTLLERCTREFVRNPLYKDDVRYLRIWMQYVNYIDEPVELFSFLAHHHIGQESSIFYEEYANYFESRGLFQKADEVYQKGKRMKAKPFLRFQQKYQQFTHRWLEFAPQSFSSNTNSVNPLQTTFESTNIQEISQSRTKISKPKFKFSVYSDADGSGKDGQPGTWQTLGTVDQRRKENNISATSWVGEKLPLKSPRKLDPLGKFQVHCDEEVSKE
With B1, the binding entry in assay [1] and in assay [2] was “binds” each time.

B2: Mad2p (wild type) (protein, UniProt O14417 1-203)
chain: MSSVPIRTNFSLKGSSKLVSEFFEYAVNSILFQRGIYPAEDFKVVRKYGLNMLVSVDEEVKTYIRKIVSQLHKWMFAKKIQKLILVITSKCSGEDLERWQFNVEMVDTADQFQNIGNKEDELRVQKEIQALIRQITATVTFLPQLEEQCTFNVLVYADKDSEVPTDWVDSDPRILRDAEQVQLRSFSTSMHKIDCQVAYRVNP
Consider B2, for which the binding entry in assay [3] is reported as “no binding (condition: in the mad3-KEN1 strain)”; in assay [1], “binds”; in assay [2] it was “binds”.

B3: Mad2-S92A (protein, UniProt O14417 1-203)
chain: B2 chain with S92A
As for B3, the binding result in assay [1] and in assay [2] was “binds” each time.
